Measurements reported in publication doi:10.1101/740472.
No constants are given. Whether binding was seen depends on the method and setting. Binding seen in cells or lysates may run through a third protein. Here binding means that the protein was enriched with, or labelled near, the bait; the list need not be complete. Where a sequence is shown, tags or fusion partners need not be part of it.

Target: T1, HA-tagged human ISLR (hISLR-HA) (human) (UniProt O14498)
T1 sequence: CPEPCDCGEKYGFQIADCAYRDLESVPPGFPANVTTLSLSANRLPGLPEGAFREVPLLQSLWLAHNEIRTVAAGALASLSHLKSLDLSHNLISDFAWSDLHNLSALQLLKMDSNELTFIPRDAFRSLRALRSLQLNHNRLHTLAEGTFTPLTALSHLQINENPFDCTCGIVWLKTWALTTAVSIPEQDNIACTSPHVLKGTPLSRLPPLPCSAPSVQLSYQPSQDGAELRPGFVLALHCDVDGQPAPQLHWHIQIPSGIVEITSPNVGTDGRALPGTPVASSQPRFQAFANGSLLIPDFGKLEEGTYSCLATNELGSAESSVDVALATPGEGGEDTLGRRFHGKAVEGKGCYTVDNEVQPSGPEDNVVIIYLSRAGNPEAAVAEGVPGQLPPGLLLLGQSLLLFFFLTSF
Experiment: affinity purification with mass spectrometry

binding: binds
Substance: ATP1B3 (from UniProt P54709 1-279)
